PubChem BioAssay AID652243, Drosophila RNAi Screening Center – 2013
In all, the deposit lists about 24,000 reagents; this is a random part of those that have a named target and a result. In the full data, 246 (1%) got an active call. 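Plates not normalised; calls are printed but the firefly/Renilla ratio behind them is not deposited; fold cut for lowering reported inconsistently.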 Raw values are not corrected between plates. Entries without a mark were called inactive. Not given: the amount of reagent.

Aim: 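Knock-downs that decrease or increase androgen receptor reporter signal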 (primary screen)
Cells: Drosophila S2R+ cells
Reagents: long dsRNA against Drosophila genes
Timing: 72 h (48 h, then 24 h hormone)
Challenge: synthetic androgen R1881 at 10 nM for 24 h
Read-out: 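Per-well raw luminescence of the androgen-driven firefly reporter and of the Renilla control, two replicates each, without normalisation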
Scale: firefly reporter light: higher = more light from androgen-responsive reporter; Renilla control light: higher = more constitutive control signal (cell number, transfection)
Hit rule: 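Hit when the log firefly-to-Renilla ratio dropped or increased by a fixed fold versus the mean of GFP or LacZ controls across duplicate plates; lowering cut given as 1.5 and as 3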
Meaning of the calls: active = hit: reporter lowered or raised; inactive = no hit

predicted target	PubChem SID	firefly reporter light, replicate 1	firefly reporter light, replicate 2	Renilla control light, replicate 1	Renilla control light, replicate 2
Grx1 (GeneID 40053)	SID104190519	3.60e5	2.83e5	2.28e6	2.48e6
Ing5 (GeneID 34752)	SID104182980	1.43e6	1.53e6	2.38e6	2.36e6
Ing5 (GeneID 34752)	SID104203762	7.29e5	7.00e5	7.57e5	8.24e5
Pos (GeneID 43762)	SID104195207	1.64e5	2.07e5	1.84e6	2.95e6
fs(1)Yb (GeneID 31262)	SID104198569	2.21e5	3.82e5	3.17e6	3.38e6
me31B (GeneID 34364)	SID104183361	8.51e5	9.90e5	1.36e6	2.04e6
CG1774 (GeneID 43722)	SID104195050	52914	50368	4.32e5	3.16e5
nub (GeneID 34669)	SID104182290	1.80e5	2.10e5	1.59e6	1.42e6
nub (GeneID 34669)	SID104183375	1.11e5	1.60e5	9.53e5	1.13e6
nub (GeneID 34669)	SID104202423	1.61e5	3.49e5	7.58e5	9.67e5
nub (GeneID 34669)	SID104204154	7.47e5	6.81e5	6.21e5	7.21e5
nub (GeneID 34669)	SID104205657	8.14e5	4.94e5	1.21e6	1.08e6
nub (GeneID 34669)	SID104207383	4.68e5 (active)	6.03e5	1.95e5	2.84e5
nub (GeneID 34669)	SID104216677	3.86e5 (active)	2.87e5	2.08e6	2.16e6

Continued; the last 2 above are carried over.
predicted target	PubChem SID	firefly reporter light, replicate 1	firefly reporter light, replicate 2	Renilla control light, replicate 1	Renilla control light, replicate 2
nub (GeneID 34669)	SID104207383	4.68e5 (active)	6.03e5	1.95e5	2.84e5
nub (GeneID 34669)	SID104216677	3.86e5 (active)	2.87e5	2.08e6	2.16e6
CG32756 (GeneID 318193)	SID104202628	9.03e5	8.03e5	6.80e5	5.19e5
CG32756 (GeneID 318193)	SID104204522	6.00e5	6.60e5	9.91e5	9.72e5
CG13771 (GeneID 33933)	SID104182069	1.39e5	1.76e5	1.41e6	1.49e6
VhaM9.7-d (GeneID 42041)	SID104194820	2.24e5	2.11e5	2.00e6	2.00e6
Prat2 (GeneID 38753)	SID104189484	1.45e6	9.42e5	1.69e6	1.44e6
Obp57e (GeneID 326110)	SID104185683	2.41e5	2.62e5	3.68e5	2.70e5
CG15254 (GeneID 34915)	SID104181662	3.93e5	3.96e5	3.42e6	2.65e6
CG15254 (GeneID 34915)	SID104201432	2.79e5	2.80e5	1.75e6	2.07e6
CG15254 (GeneID 34915)	SID104208112	1.99e5 (active)	2.15e5	8.89e5	8.89e5
spri (GeneID 31987)	SID104197776	3.52e5	3.60e5	4.05e6	2.84e6
spri (GeneID 31987)	SID104197777	3.06e5	3.25e5	3.84e6	2.64e6
spri (GeneID 31987)	SID104197778	4.38e5	4.59e5	2.75e6	2.72e6
spri (GeneID 31987)	SID104197781	3.28e5	3.57e5	3.24e6	3.18e6
spri (GeneID 31987)	SID104202284	6.31e5	9.33e5	1.18e6	2.08e6
spri (GeneID 31987)	SID104207358	9.19e5	7.60e5	1.05e6	1.13e6
